# Reference: PubChem BioAssay AID504467 (National Center for Advancing Translational Sciences (NCATS), 2011)
# The campaign covered roughly 330,000 compounds. About 7,700 (2.3%) were called active. This list was built around the results that the source calls inconclusive (neither active nor inactive); the mix of calls is not that of the screen. Calls come from the whole dose curve; as a rule, active = well fitted inhibition curve with a large enough effect; inconclusive = small, poorly fitted or top-dose-only effect, or effect the other way; inactive = flat fitted curve, though single readings scatter. Potencies of inconclusive entries are doubtful fits and often do not repeat.
# Experiment: qHTS screen for small molecules that inhibit ELG1-dependent DNA repair in human embryonic kidney (HEK293T) cells expressing luciferase-tagged ELG1; note: nearly all actives have a fitted effect of over 55% in size
# Settings: HEK293T ELG1-luciferase reporter, luminescence, 16 h, DNA damage induced by 5-fluorouridine; activity change, negative = inhibition: at 46.1 µM (top of the series)
# Method in brief: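 In this reporter screen, reduction of luminescence relative to DMSO vehicle indicated activity. Compounds and 5-fluorouridine were added together to 2,000 cells per well, incubated for 16 hr at 37 °C, then developed with ONE-Glo.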
# % is set by controls: 0 for no effect and ±100 for the full control effect; potency is the fitted concentration of half-maximal effect.
Structure (SMILES),Potency,"activity change, negative = inhibition"
COCC(C)n1c(C)cc(C(=O)COc2ccc(N(C)S(=O)(=O)c3ccc(NC(C)=O)cc3)cc2)c1C (stereo not drawn),active: 4.11 µM,
CCCCOc1ccc(CSC(=N)N)cc1Cl,"inconclusive: 20.6 µM [activator, partial curve]",
Cc1ccccc1N(C(=O)CCCC(=O)Nc1ccccn1)C(C(=O)NC1CCCC1)c1ccc(O)cc1 (stereo not drawn),,inactive: -3.11%
Cc1onc(C(=O)Nc2cccnc2Cl)c1[N+](=O)[O-],,inactive: -15.5%
Cc1nnc(NC(=O)CSc2nnc(C)c(=O)n2N)s1,"inconclusive: 9.2 µM [activator, partial curve]",
COc1ccccc1CNC(=O)[C@H](C)N1C(=O)N2CCc3c([nH]c4ccccc34)[C@@]2(C)C1=O,"inconclusive: 4.11 µM [inhibitor, single point]",
O=C(NCC(=O)N(c1ccccc1F)C(C(=O)NCC1CCCO1)c1ccccc1)c1ccco1 (stereo not drawn),"inconclusive: 23.1 µM [inhibitor, single point]",
COc1cccc(NC(=O)CSc2nnc(-c3ccc(C)cc3)o2)c1,"inconclusive: 9.2 µM [activator, partial curve]",
O=C(Nc1nnc(CCN2CCOCC2)s1)c1ccccc1,"inconclusive: 25.9 µM [activator, single point]",
N#Cc1nc(-c2ccco2)oc1N1CCCC1,"inconclusive: 20.6 µM [activator, partial curve, poor fit]",
COc1ccccc1NC(=O)COc1ccc(/C=N/NC(=O)CSCc2ccc(Cl)cc2)cc1,"inconclusive: 20.6 µM [inhibitor, single point]",
C/C=C/Cn1c(N(C)Cc2ccccc2)nc2c1c(=O)[nH]c(=O)n2C,"inconclusive: 29.1 µM [inhibitor, single point]",
COc1ccc(N(C)C(=O)c2cc3c(s2)-c2ccccc2S(=O)(=O)C3)cc1,"inconclusive: 16.4 µM [inhibitor, single point]",
Cc1cc([N+](=O)[O-])ccc1N=Nc1c(N)[nH]n(-c2ccccc2)c1=O,,inactive: 4.39%
CC(C)[C@H](NC(=O)c1ccc(Br)cc1)C(=O)NC1CCCCC1,"inconclusive: 20.6 µM [activator, single point]",
COc1ccc(Cc2nc(-c3ccc(Br)cc3)no2)cc1,"inconclusive: 18.4 µM [activator, partial curve, poor fit]",
COC(=O)[C@]1(C)N[C@H](c2ccc(-c3ccc(Cl)c(Cl)c3)cc2)[C@@H]2C(=O)N(C)C(=O)[C@@H]21,"inconclusive: 35.5 µM [inhibitor, single point]",
CC(C)N(C(=O)CSc1nnc(Cc2ccc3c(c2)OCO3)n1C)C(C)C,"inconclusive: 9.2 µM [activator, partial curve, poor fit]",

# Record cards (already shown).
# `Cc1cc([N+](=O)[O-])ccc1N=Nc1c(N)[nH]n(-c2ccccc2)c1=O` is listed as activity change, negative = inhibition: inactive: 4.39%
# `Cc1nnc(NC(=O)CSc2nnc(C)c(=O)n2N)s1` is listed as Potency: inconclusive: 9.2 µM [activator, partial curve]
